{
  "source": "patent US20260097049A1",
  "about": "“C[…] AND METHODS OF USE FOR TREATMENT AND PREVENTION OF CANCER” (BlackStone Therapeutics, LLC, priority 2022, published 2026)",
  "test": "Potential maximum tolerated dosages in mice",
  "type": "in vivo",
  "conditions": "31.25 mg/kg dose, mouse",
  "method": "To determine potential maximum tolerated dosages, 3.12, 6.25, 10, and 12.5 mg/kg of CCL-106, for 2, 2, 1, and 1 doses respectively, were administered to mice. […] Mice were administered high doses of CCL-104 and CCL-106.",
  "note": "Some of these results come from one statement about several compounds together.",
  "data": [
    {"molecule": "CCCc1cc(O)c(C2CC(C)CCC2C(C)C)c(O)c1", "note": "(racemic) [CCL-106, hexahydrocannabidivarin]", "values": [
      {"measurement": "time to start moving/breathing normally", "result": "30 to 45", "unit": "min"}
    ]}
  ]
}
